In the supplement of paper PMC12823440, “Inhibitors supercharge kinase turnover through native proteolytic circuits” (Nature, 2025):
Where a name gives a salt, the structure may show the parent alone. The list shows a part of the results. The calls rarely recur for the same compound in another form.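 Kinases, fused to nanoluciferase, were expressed in K562 cells; luminescence was measured every 4 h from 2 to 18 h as percent of control (DMSO = 100%, positive control = 0%). A time point is decreased if signal falls significantly (2 sigma). Hits were called by the authors by a rule that is not shown; the count of time points alone does not decide it.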

Protein sequences, listed by entry. Tags and fused reporters are not part of them. Lines headed by an entry give the natural chain unless they say otherwise; changes in a name come on top.
UniProt P43403: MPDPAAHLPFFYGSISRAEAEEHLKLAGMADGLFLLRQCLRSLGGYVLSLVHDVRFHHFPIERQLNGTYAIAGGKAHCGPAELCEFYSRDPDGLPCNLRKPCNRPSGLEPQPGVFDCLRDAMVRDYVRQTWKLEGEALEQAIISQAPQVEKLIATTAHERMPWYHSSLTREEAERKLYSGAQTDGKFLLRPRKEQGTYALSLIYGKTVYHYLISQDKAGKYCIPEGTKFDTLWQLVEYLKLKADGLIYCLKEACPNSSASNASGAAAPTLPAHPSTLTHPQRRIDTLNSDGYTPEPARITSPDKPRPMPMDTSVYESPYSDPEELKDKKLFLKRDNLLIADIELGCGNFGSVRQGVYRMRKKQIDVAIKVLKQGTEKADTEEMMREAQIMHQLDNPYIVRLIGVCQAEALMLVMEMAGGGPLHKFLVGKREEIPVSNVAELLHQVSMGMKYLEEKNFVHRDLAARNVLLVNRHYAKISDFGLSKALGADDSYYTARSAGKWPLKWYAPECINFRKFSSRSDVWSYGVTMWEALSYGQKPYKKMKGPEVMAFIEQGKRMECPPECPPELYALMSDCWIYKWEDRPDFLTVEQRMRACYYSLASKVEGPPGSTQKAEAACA

Target: ZAP70 (UniProt P43403)
Assay: number of time points (of 5) at which kinase-Nluc abundance scored as decreased, DMSO-normalised (count); higher = more persistent destabilization
Conditions: K562; 2-18 h

SMILES	number of time points
CC(C)n1ncnc1-c1cn2c(n1)-c1ccc(O[C@@H](C)C(N)=O)cc1OCC2 (10 µM)	0
O=C(c1cccc(Cl)c1F)N1CCN(Cc2cccc(Nc3nccs3)n2)CC1 (2.5 µM)	0
COc1cc(F)ccc1-c1ncnc(Nc2cccc(C[S@](C)(=N)=O)c2)n1 [Atuveciclib] (2.5 µM)	0
Cc1cnc(NC(=O)c2cc(Oc3cnc(C(=O)N(C)C)nc3)c3cc(C)oc3c2)cn1 (10 µM)	0
CC1=C(C(=O)Nc2cc3cn[nH]c3cc2F)C(c2ccc(C(F)(F)F)cc2)CC(=O)N1 (stereo unspecified) (10 µM)	0
NCC1CCC(CNc2nc(NCc3ccccc3OC(F)(F)F)ncc2[N+](=O)[O-])CC1 (stereo unspecified) [PKC-theta inhibitor] (10 µM)	0
O=C1Nc2ccc(I)cc2/C1=C/c1cc(Br)c(O)c(Br)c1 (10 µM)	0
COc1cc(-c2oc3cc(O)cc(O)c3c(=O)c2O)ccc1O [Isorhamnetin] (10 µM)	0
O=C1OC(/C=C/c2ccccc2)=NC/1=C\c1cccnc1 (10 µM)	0
Cn1ncc(NC(=O)c2nc(-c3c(F)cccc3F)sc2N)c1N1CC[C@@H](N)[C@H](F)CC1 (10 µM)	0
CNC(=O)CNc1cnc2ccc(-c3ccc(OC)c(OC)c3)cc2n1 (10 µM)	0
CO[C@H]1C[C@@H]2CC[C@@H](C)[C@@](O)(O2)C(=O)C(=O)N2CCCC[C@H]2C(=O)O[C@H]([C@H](C)C[C@@H]2CC[C@@H](OCCO)[C@H](OC)C2)CC(=O)[C@H](C)/C=C(\C)[C@@H](O)[C@@H](OC)C(=O)[C@H](C)C[C@H](C)/C=C/C=C/C=C/1C [Everolimus] (10 µM)	0
O=C(Nc1cccnc1)c1cc(-c2ccnc(F)c2)ccc1OCc1ccccc1 (10 µM)	0
COc1c(O)cc2oc(-c3ccc(O)cc3)cc(=O)c2c1O [Hispidulin] (10 µM)	0
O=C1CC[C@H](NC(=O)Cc2ccccc2)C(=O)N1 [Antineoplaston A10] (10 µM)	0
CC(C)Oc1ccc(F)c(-c2cnc(N)c(C(=O)Nc3cnccc3N3CCC[C@@H](C(=O)O)C3)n2)c1 (2 µM)	0

SMILES	number of time points
Nc1nc2c(nc(Br)n2[C@@H]2O[C@@H]3COP(=O)(O)O[C@H]3[C@H]2O)c(=O)[nH]1 [8-Bromo-cGMP (sodium)] (10 µM)	0
Cc1cc(-n2c(=O)ccc3c[nH]c4nccc-4c32)ccc1F (10 µM)	0
CO[C@H]1CC[C@H](N2C(=O)CNc3ncc(-c4ccc(C(C)(C)O)nc4)nc32)CC1 (2.5 µM)	0
COc1cc2c(cc1OC)/C(=C/c1ccc(O)cc1)C(=O)N2 (10 µM)	0
NCCOc1ccc(Cl)cc1C(=O)Nc1ccc([N+](=O)[O-])cc1Cl [HJC0152 hydrochloride] (2 µM)	0
CCN(CC)CCOc1ccc(Nc2nc(-c3ccccc3NC(=O)CCN3CCN(C)CC3)nc3ccccc23)cc1 (2.5 µM)	0
C=CC(=O)N1CCN(C(=O)CNc2cc(I)c(Cl)cc2O)CC1 [K-Ras(G12C) inhibitor 12] (10 µM)	0
N[C@@H]1CCCN(c2c(/C=C3\SC(=O)NC3=O)cccc2-c2ccccc2)C1 (10 µM)	0
O=C(Nc1cc(Cl)cc2c1[nH]c1cnccc12)c1cccnc1 (10 µM)	0
C=C1C(=O)[C@@]23[C@H](O)C[C@@H]4C(C)(C)C(=O)CC[C@@]4(C)[C@@H]2CC[C@@H]1[C@H]3O [Glaucocalyxin A] (2.5 µM)	0
C[C@@H]1O[C@@H](Oc2cc(O)c3c(=O)c(O[C@@H]4O[C@@H](C)[C@H](O)[C@@H](O)[C@H]4O)c(-c4ccc(O)cc4)oc3c2)[C@H](O)[C@H](O)[C@H]1O [Kaempferitrin] (10 µM)	0
Cc1c(C(=O)Nc2ccc(Oc3ccnc4[nH]cc(-c5ccccc5)c34)c(F)c2)c(=O)n(-c2ccc(F)cc2)n1C (10 µM)	0
c1nc2c(NC3CCCCC3)nc(Nc3ccc(N4CCOCC4)cc3)nc2[nH]1 [Reversine] (10 µM)	0
CN1CCN(c2ccc(Nc3ncc4cc(C#N)c(=O)n(C5CCCC5)c4n3)cc2)CC1 (10 µM)	0
NC[C@@](O)(c1ccc(Cl)cc1)c1ccc(-c2cn[nH]c2)cc1 (10 µM)	0

Another view of part of the listing above:
c1nc2c(NC3CCCCC3)nc(Nc3ccc(N4CCOCC4)cc3)nc2[nH]1 [Reversine] (10 µM)
  number of time points: 0
CN1CCN(c2ccc(Nc3ncc4cc(C#N)c(=O)n(C5CCCC5)c4n3)cc2)CC1 (10 µM)
  number of time points: 0
